Results: article PMC3032050, “LPS ligand and culture additives improve production of monomeric MD-1 and 2 in Pichia pastoris by decreasing aggregation and intermolecular disulfide bonding” (Protein Expression and Purification, 2011)
These are yes or no findings as the source states them, for the method shown. Some entries that bind do so weakly or less than the wild type.

Legend:
Conditions in all cases: remark: other sources report otherwise
[1] = molecular target: T1, human MD-2 (myeloid differentiation factor 2) (human), Q9Y6Y9; experiment: SEC; nickel-purified protein on HiLoad 16/60 Superdex 200 in 50 mM sodium acetate, pH 5.0; without additive, or with the anti-aggregation additive (0.2 M MgSO4 for hMD-2) in culture medium and buffers; both purified
T1 chain: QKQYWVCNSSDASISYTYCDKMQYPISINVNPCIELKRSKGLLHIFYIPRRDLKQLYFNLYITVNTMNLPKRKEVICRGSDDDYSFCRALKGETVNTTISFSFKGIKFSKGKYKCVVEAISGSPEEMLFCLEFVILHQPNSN

[2] = molecular target: T1, human MD-2 (myeloid differentiation …); experiment: non-reducing SDS-PAGE with anti-His Western blot; culture supernatants of GS115 and KM71H cultures, induced without or with culture additives
[3] = molecular target: T1, human MD-2 (myeloid differentiation …); experiment: non-reducing SDS-PAGE; gel-filtration peak fractions on a non-reducing Coomassie-stained SDS-PAGE gel; both purified

- binding [1]: binds
- binding [2]: binds
- binding [3]: binds
B1: human MD-2 (myeloid differentiation factor 2), Q9Y6Y9 19-160 (natural protein)
chain: QKQYWVCNSSDASISYTYCDKMQYPISINVNPCIELKRSKGLLHIFYIPRRDLKQLYFNLYITVNTMNLPKRKEVICRGSDDDYSFCRALKGETVNTTISFSFKGIKFSKGKYKCVVEAISGSPEEMLFCLEFVILHQPNSN
